# Results are given in words; binding and its absence hold for the method and conditions named. Some results given as binding are weak or reduced against the parent protein; the word gives no strength.
# Sequences of proteins named here, by UniProt entry; tags and fusion partners are left off. A change or cut given only in a name is not applied to a line headed by its entry.
# UniProt P10636: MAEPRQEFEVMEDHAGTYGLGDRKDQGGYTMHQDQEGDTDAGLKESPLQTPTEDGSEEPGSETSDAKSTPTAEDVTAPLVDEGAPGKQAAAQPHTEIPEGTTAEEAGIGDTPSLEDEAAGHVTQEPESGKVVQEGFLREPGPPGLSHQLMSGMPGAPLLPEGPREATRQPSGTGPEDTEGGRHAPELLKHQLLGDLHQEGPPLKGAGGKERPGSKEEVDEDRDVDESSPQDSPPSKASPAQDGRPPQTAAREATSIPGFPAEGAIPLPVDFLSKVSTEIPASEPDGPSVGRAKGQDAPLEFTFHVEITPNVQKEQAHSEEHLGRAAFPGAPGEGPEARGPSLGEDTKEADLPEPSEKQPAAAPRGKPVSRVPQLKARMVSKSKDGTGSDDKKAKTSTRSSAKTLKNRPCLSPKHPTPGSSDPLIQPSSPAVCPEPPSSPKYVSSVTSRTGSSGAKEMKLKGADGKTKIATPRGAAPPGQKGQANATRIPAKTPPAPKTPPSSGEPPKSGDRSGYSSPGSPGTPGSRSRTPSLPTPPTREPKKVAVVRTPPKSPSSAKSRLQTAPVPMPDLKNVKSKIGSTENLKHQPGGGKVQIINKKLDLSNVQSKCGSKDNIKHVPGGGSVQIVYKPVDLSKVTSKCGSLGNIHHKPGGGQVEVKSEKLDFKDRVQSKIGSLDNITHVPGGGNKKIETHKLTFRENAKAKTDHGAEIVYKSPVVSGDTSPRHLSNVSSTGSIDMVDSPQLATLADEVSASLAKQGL
# T1: tau 369-390 (human)
# T1 sequence: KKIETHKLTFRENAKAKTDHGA
# T2: tau 369-391 (human)
# T2 sequence: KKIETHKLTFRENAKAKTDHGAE
# How the values were obtained:
# [1] = target: Line 1 human tau fragment 296-390 (human) (UniProt P10636); test: Western blot
# [2] = target: Line 1 human tau fragment 296-390 (human) (UniProt P10636); test: Western blot of mouse brain homogenate (20 ug protein per lane, per the legend), probed with S1G2
# [3] = target: tau 266-359 (R1-3) (human) (UniProt P10636); test: ELISA
# [4] = target: tau 266-359 (R1-3) (human) (UniProt P10636); test: ELISA, antigen coated, scAb titrated
# tau 369-390 (human) [5] = target: T1, tau 369-390 (human); test: ELISA
# tau 369-391 (human) [6] = target: T2, tau 369-391 (human); test: ELISA
# tau 369-390 (human) [7] = target: T1, tau 369-390 (human); test: ELISA, antigen coated, scAb titrated; panel title 369-390
# tau 369-391 (human) [8] = target: T2, tau 369-391 (human); test: ELISA, antigen coated, scAb titrated; panel title 369-391
Binder,binding [3],binding [4],binding (tau 369-390 (human) [5]),binding (tau 369-391 (human) [6]),binding (tau 369-390 (human) [7]),further results
"S1G2 mAb (antibody, mouse IgG2a, V domains shown) VH: QVQLQESGPSLVKPSQTLSLTCTVSGFSLTSNSVGWVRQAPGKAPEWVAGIDTDGEEGYNPALNSRLSITRDTSKSQVSLSLSSVTSEDTAVYYCGRSYRADGLAYGYVQAIDYWGPGLLVTVSS VL: QAVVTQPSSVSGSLGQRVSITCSGSFIGISSVGWFQQLPGSGLRTIIVASDGRPSGVPDRFSMSKSGNTATLTISSLQAEDEADYFCGSSDRTPYTGVFGSGTRLTVLG",–,–,–,–,–,binding [1]: binds; binding [2]: binds
"CE2 scAb (scFv, not shown: small tags and cut ends) scFv: QVQLQESGPSLVKPSQTLSLTCTVSGFSLTNYPVGWVRQAPGKALEWIGNIENDGSANYASALKSRLSITRDTSKNQVSLSLSSATTEDTAVYYCGREFGGSDGYTYFVDIDYWGPGLLVTVSSEGKSSGASGESKVDDQAVLTQPSSVSKSLGQSVSITCSGSSSNVGYGNYVSWFQQVPGSAPKILIYGATSRASGVPDRFSGSRSGNTATLTITSLQAEDEADYYCASYDGSSSGVFGSGTRLTVLG",binds,binds,–,–,–,–
"S1G10 scAb (scFv, not shown: small tags and cut ends) scFv: QVQLQESGPSLVKPSQTLSLTCTVSGFSLTSNSVGWVRQAPGKAPEWVAGIDTDGEEGYNPALNSRLSITRDTSKSQVSLSLSSVTSEDTAVYYCGRSYRADGLAYGYVQAIDYWGPGLLVTVSSEGKSSGASGESKVDDQAVLTQPSSMSGSLGQRVSITCSGSFIGISSVGWFQQLPGSGLRTIIVASDGRPSGVPDRFSMSKSGNTATLTISSLQAEDEADYFCGSSDRTQYTGVFGSGTRLTVLG",–,–,binds,binds,binds,–
"S1G2 scAb (scFv, not shown: small tags and cut ends) scFv: QVQLQESGPSLVKPSQTLSLTCTVSGFSLTSNSVGWVRQAPGKAPEWVAGIDTDGEEGYNPALNSRLSITRDTSKSQVSLSLSSVTSEDTAVYYCGRSYRADGLAYGYVQAIDYWGPGLLVTVSSEGKSSGASGESKVDDQAVVTQPSSVSGSLGQRVSITCSGSFIGISSVGWFQQLPGSGLRTIIVASDGRPSGVPDRFSMSKSGNTATLTISSLQAEDEADYFCGSSDRTPYTGVFGSGTRLTVLG",–,–,binds,binds,binds,binding (tau 369-391 (human) [8]): binds
"CE3 scAb (scFv, not shown: small tags and cut ends) scFv: QVRLQESGPSLVKPSQTLSVTCTVSGFSLISNAVGWVRQAPGKVPESLAGCSSDGKCYYNSALKSRLDITRDTSKNQISLSLSSVTTDDAAVYYCTRGYYPVYGYDYLGTIDYWGPGLLVTVSSEGKSSGASGESKVDDQAVLTQPSSVSGSLGQRVSITCSGSSSNVGRNDVAWFQQLPGSGLRTIIYGTTSRPSGIPDRFSGSKSGVTATLTIDSLQAEDEADYFCASGDSSAINDIFGSGTRLTVLG",binds,binds,–,–,–,–

# Further lines, with some results ahead:
binding [3],binding [4],binding (tau 369-390 (human) [5]),binding (tau 369-391 (human) [6]),binding (tau 369-390 (human) [7]),Binder,further results
–,–,binds,binds,–,"MD9 scAb (scFv, not shown: small tags and cut ends) scFv: QVRLQESGPSLVKSSQTLSLTCTVSGFSLTRESIAWVRQAPGKVPEWLGGVGIDGTSYYSPALKSRLSITRDTSKSQASLSLSSVATEDTAMYYCARNYIDFEYWGPGLLVTVSSEGKSSGASGESKVDDQAVLTQLSSVSGSLGQRISITCSGSSSNVGIYDVSWFQQLPGSGLRTVIYGTNNRPSGVPDRFSGSRSGNTATLTISSLQSEDEAIYYCAAGDSSTIAVFGSGTRLTVLG",–
–,–,binds,binds,binds,"S1F4 scAb (scFv, not shown: small tags and cut ends) scFv: QVQLQESGPSLVKPSQTLSLTCTVSGFSLSSNSVGWVRQAPGKAPEWVAGIDTDGEEGYNPALNSRLSITRDTSKSQVSLSLSSVTSEDTAVYYCVRSYRADGLAYGYVQAIDYWGPGLLLTISSEGKSSGASGESKVDDQAVVTQPSSVSGSLGQRVSITCSGSFIGISSVGWFQQLPGSGLRTVIVASDGRPSGVPDRFSNSKSGNTATLTISSLQAEDEADYFCGSSDRTQYTGVFGSGTRLTVLG",binding (tau 369-391 (human) [8]): binds
binds,binds,–,–,–,"S1D12 scAb (scFv, not shown: small tags and cut ends) scFv: QVQLQESGPSLVKPSQTLSLTCTVSGFSLNNNAVGWVRQAPGKVPESLVGCSSDGTCYYNSALKSRLDITRDTSKNQISLSLSSVTTDDAAVYYCTRGHYSIYGYDYLGTIDYWGPGLLVTVSSEGKSSGASGESKVDDQAVLTQPSSVSGSLGQRVSITCSGSSSNVGGGNSVGWYQHLPGSGLKTIIYDTNSRPSGVPDRFSGSRSGNTATLTINSLQAEDEGDYYCVTGDSTTHDDLVGSGTRLTVLG",–
